{"source": "PubChem BioAssay AID1259261 (Sanger Institute, 2017)", "screen": "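Find kinase silencing that cuts viability alone or with anchor drugs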 (primary screen)", "cells": "HCC2998 human colorectal cancer cells", "knock-down reagent": "siRNA pool against human genes", "challenge": "anchor drugs BYL719 1 µM, cetuximab 5 µg/ml or trametinib 10 nM, each compared with DMSO vehicle", "read-out": "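Cell viability relative to non-targeting siRNA, averaged over replicates, with robust z-score for siRNA alone and synergy scores with each anchor drug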", "reading the numbers": "viability z-score, knock-down alone: higher = more viable cells than controls", "hit rule": "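Essential when the siRNA-alone viability robust z-score is below -3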", "meaning of the calls": "active = essential; inactive = no change", "note": "Shown is a random part of 794 deposited reagents. In the full data, 10 (1.3%) got an active call. 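Calls reflect knock-down alone without drug; synergy scores with BYL719, cetuximab or trametinib do not affect calls.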 Further read-outs or replicates are left out here. The record does not give: the amount of reagent, the time to read-out."}
{"Target gene":"DGKG (GeneID 1608)","viability z-score, knock-down alone":-0.0636,"outcome":"inactive"}
{"Target gene":"PTK6 (GeneID 5753)","viability z-score, knock-down alone":-0.144,"outcome":"inactive"}
{"Target gene":"ITPKC (GeneID 80271)","viability z-score, knock-down alone":1.1,"outcome":"inactive"}
{"Target gene":"STK25 (GeneID 10494)","viability z-score, knock-down alone":0.536,"outcome":"inactive"}
{"Target gene":"STK40 (GeneID 83931)","viability z-score, knock-down alone":0.588,"outcome":"inactive"}
{"Target gene":"EXOSC10 (GeneID 5394)","viability z-score, knock-down alone":-0.46,"outcome":"inactive"}
{"Target gene":"DCLK2 (GeneID 166614)","viability z-score, knock-down alone":0.623,"outcome":"inactive"}
{"Target gene":"EPHB4 (GeneID 2050)","viability z-score, knock-down alone":-1.48,"outcome":"inactive"}
{"Target gene":"DCK (GeneID 1633)","viability z-score, knock-down alone":-4.23,"outcome":"active"}
{"Target gene":"PRKD3 (GeneID 23683)","viability z-score, knock-down alone":-1.42,"outcome":"inactive"}
{"Target gene":"NRBP1 (GeneID 29959)","viability z-score, knock-down alone":-1.41,"outcome":"inactive"}
{"Target gene":"KRAS (GeneID 3845)","viability z-score, knock-down alone":-1.99,"outcome":"inactive"}
{"Target gene":"CDKL1 (GeneID 8814)","viability z-score, knock-down alone":0.826,"outcome":"inactive"}
{"Target gene":"FLT1 (GeneID 2321)","viability z-score, knock-down alone":0.946,"outcome":"inactive"}
{"Target gene":"MAP3K12 (GeneID 7786)","viability z-score, knock-down alone":0.436,"outcome":"inactive"}
{"Target gene":"MAP3K1 (GeneID 4214)","viability z-score, knock-down alone":1.21,"outcome":"inactive"}
{"Target gene":"ACVR1B (GeneID 91)","viability z-score, knock-down alone":1.07,"outcome":"inactive"}
{"Target gene":"MYO3B (GeneID 140469)","viability z-score, knock-down alone":-1.69,"outcome":"inactive"}
{"Target gene":"MARK1 (GeneID 4139)","viability z-score, knock-down alone":-0.317,"outcome":"inactive"}
{"Target gene":"BCOR (GeneID 54880)","viability z-score, knock-down alone":-0.609,"outcome":"inactive"}
{"Target gene":"TSSK2 (GeneID 23617)","viability z-score, knock-down alone":-2.05,"outcome":"inactive"}
{"Target gene":"SRMS (GeneID 6725)","viability z-score, knock-down alone":0.663,"outcome":"inactive"}
{"Target gene":"CIT (GeneID 11113)","viability z-score, knock-down alone":-0.406,"outcome":"inactive"}
{"Target gene":"TAB1 (GeneID 10454)","viability z-score, knock-down alone":1.21,"outcome":"inactive"}
{"Target gene":"MTOR (GeneID 2475)","viability z-score, knock-down alone":1.21,"outcome":"inactive"}
{"Target gene":"NR4A2 (GeneID 4929)","viability z-score, knock-down alone":-1.27,"outcome":"inactive"}
{"Target gene":"ERN2 (GeneID 10595)","viability z-score, knock-down alone":0.835,"outcome":"inactive"}
{"Target gene":"PIK3CB (GeneID 5291)","viability z-score, knock-down alone":-1.58,"outcome":"inactive"}

Already shown: entries from further up.
{"Target gene":"STK25 (GeneID 10494)","viability z-score, knock-down alone":0.536,"outcome":"inactive"}
{"Target gene":"STK40 (GeneID 83931)","viability z-score, knock-down alone":0.588,"outcome":"inactive"}
{"Target gene":"EXOSC10 (GeneID 5394)","viability z-score, knock-down alone":-0.46,"outcome":"inactive"}
{"Target gene":"DCLK2 (GeneID 166614)","viability z-score, knock-down alone":0.623,"outcome":"inactive"}
{"Target gene":"EPHB4 (GeneID 2050)","viability z-score, knock-down alone":-1.48,"outcome":"inactive"}
